In the supplement of paper PMC8728848:
Some of the results follow.

How the values were obtained:
Test in all cases: glycan array binding signal (z-score within array); higher = stronger binding
Details in all cases: glycan notation: IUPAC condensed, linker removed
[1] = molecular target: Fuc(a1-2)[Gal(a1-3)]Gal(b1-3)GlcNAc(b1-6)GalNAc
Outline: (§1)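 Arrays were curated from the Consortium for Functional Glycomics database, 3228 in total, and kept only where the protein sequence was available. Binding is expressed as a within-array Z-score. This score was averaged across arrays of the same protein sequence at different concentrations or buffers and across linkers, and negative values can be read as non-binding.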

[2] = molecular target: Fuc(a1-2)[Gal(a1-3)]Gal(b1-4)Glc
Outline: as §1

[3] = molecular target: Fuc(a1-2)[Gal(a1-3)]Gal(b1-4)GlcNAc
Outline: as §1

[4] = molecular target: Fuc(a1-2)[Gal(a1-3)]Gal(b1-4)GlcNAc(b1-2)Man
Outline: as §1

[5] = molecular target: Fuc(a1-2)[Gal(a1-3)]Gal(b1-4)GlcNAc(b1-2)Man(a1-3)[Fuc(a1-2)[Gal(a1-3)]Gal(b1-4)GlcNAc(b1-2)Man(a1-6)]Man(b1-4)GlcNAc(b1-4)GlcNAc
Outline: as §1

[6] = molecular target: Fuc(a1-2)[Gal(a1-3)]Gal(b1-4)GlcNAc(b1-2)Man(a1-3)[Fuc(a1-2)[Gal(a1-3)]Gal(b1-4)GlcNAc(b1-2)Man(a1-6)]Man(b1-4)GlcNAc(b1-4)[Fuc(a1-6)]GlcNAc
Outline: as §1

[7] = molecular target: Fuc(a1-2)[Gal(a1-3)]Gal(b1-4)GlcNAc(b1-3)GalNAc
Outline: as §1

[8] = molecular target: Fuc(a1-2)[Gal(a1-3)]Gal(b1-4)GlcNAc(b1-6)GalNAc
Outline: as §1

[9] = molecular target: Fuc(a1-2)[Gal(a1-3)]Gal(b1-4)[Fuc(a1-3)]Glc
Outline: as §1

[10] = molecular target: Fuc(a1-2)[Gal(a1-3)]Gal(b1-4)[Fuc(a1-3)]GlcNAc
Outline: as §1

[11] = molecular target: Fuc(a1-2)[Gal(a1-3)]Gal(b1-4)[Fuc(a1-3)]GlcNAc(b1-3)GalNAc
Outline: as §1

[12] = molecular target: Fuc(a1-2)[Gal(a1-4)]Gal(b1-4)GlcNAc
Outline: as §1

[13] = molecular target: Fuc(a1-2)[GalNAc(a1-3)]Gal
Outline: as §1

[14] = molecular target: Fuc(a1-2)[GalNAc(a1-3)]Gal(b1-3)GalNAc(a1-3)[Fuc(a1-2)]Gal(b1-4)GlcNAc
Outline: as §1

[15] = molecular target: Fuc(a1-2)[GalNAc(a1-3)]Gal(b1-3)GalNAc(b1-3)Gal(a1-4)Gal(b1-4)Glc
Outline: as §1

[16] = molecular target: Fuc(a1-2)[GalNAc(a1-3)]Gal(b1-3)GlcNAc
Outline: as §1

[17] = molecular target: Fuc(a1-2)[GalNAc(a1-3)]Gal(b1-3)GlcNAc(b1-2)Man(a1-3)[Fuc(a1-2)[GalNAc(a1-3)]Gal(b1-3)GlcNAc(b1-2)Man(a1-6)]Man(b1-4)GlcNAc(b1-4)GlcNAc
Outline: as §1

[18] = molecular target: Fuc(a1-2)[GalNAc(a1-3)]Gal(b1-3)GlcNAc(b1-2)Man(a1-3)[Fuc(a1-2)[GalNAc(a1-3)]Gal(b1-3)GlcNAc(b1-2)Man(a1-6)]Man(b1-4)GlcNAc(b1-4)[Fuc(a1-6)]GlcNAc
Outline: as §1

[19] = molecular target: Fuc(a1-2)[GalNAc(a1-3)]Gal(b1-3)GlcNAc(b1-3)GalNAc
Outline: as §1

[20] = molecular target: Fuc(a1-2)[GalNAc(a1-3)]Gal(b1-3)GlcNAc(b1-6)GalNAc
Outline: as §1

[21] = molecular target: Fuc(a1-2)[GalNAc(a1-3)]Gal(b1-4)Glc
Outline: as §1

[22] = molecular target: Fuc(a1-2)[GalNAc(a1-3)]Gal(b1-4)GlcNAc
Outline: as §1

[23] = molecular target: Fuc(a1-2)[GalNAc(a1-3)]Gal(b1-4)GlcNAc(b1-2)Man
Outline: as §1

[24] = molecular target: Fuc(a1-2)[GalNAc(a1-3)]Gal(b1-4)GlcNAc(b1-2)Man(a1-3)[Fuc(a1-2)[GalNAc(a1-3)]Gal(b1-4)GlcNAc(b1-2)Man(a1-6)]Man(b1-4)GlcNAc(b1-4)GlcNAc
Outline: as §1

[25] = molecular target: Fuc(a1-2)[GalNAc(a1-3)]Gal(b1-4)GlcNAc(b1-2)Man(a1-3)[Fuc(a1-2)[GalNAc(a1-3)]Gal(b1-4)GlcNAc(b1-2)Man(a1-6)]Man(b1-4)GlcNAc(b1-4)[Fuc(a1-6)]GlcNAc
Outline: as §1

[26] = molecular target: Fuc(a1-2)[GalNAc(a1-3)]Gal(b1-4)GlcNAc(b1-3)Gal(b1-4)GlcNAc
Outline: as §1

[27] = molecular target: Fuc(a1-2)[GalNAc(a1-3)]Gal(b1-4)GlcNAc(b1-3)Gal(b1-4)GlcNAc(b1-3)Gal(b1-4)GlcNAc
Outline: as §1

[28] = molecular target: Fuc(a1-2)[GalNAc(a1-3)]Gal(b1-4)GlcNAc(b1-3)GalNAc
Outline: as §1

[29] = molecular target: Fuc(a1-2)[GalNAc(a1-3)]Gal(b1-4)GlcNAc(b1-3)[Fuc(a1-2)[GalNAc(a1-3)]Gal(b1-4)GlcNAc(b1-6)]GalNAc
Outline: as §1

[30] = molecular target: Fuc(a1-2)[GalNAc(a1-3)]Gal(b1-4)GlcNAc(b1-6)GalNAc
Outline: as §1

[31] = molecular target: Fuc(a1-2)[GalNAc(a1-3)]Gal(b1-4)[Fuc(a1-3)]GlcNAc
Outline: as §1

[32] = molecular target: Fuc(a1-2)[GalNAc(a1-3)]Gal(b1-4)[Fuc(a1-3)]GlcNAc(b1-3)GalNAc
Outline: as §1

[33] = molecular target: Fuc(a1-2)[GalNAc(a1-4)]Gal(b1-4)GlcNAc
Outline: as §1

[34] = molecular target: Fuc(a1-2)[GalNAc(b1-3)]Gal
Outline: as §1

[35] = molecular target: Fuc(a1-3)GlcNAc
Outline: as §1

[36] = molecular target: Fuc(a1-3)[Gal(b1-4)]Glc6S
Outline: as §1

[37] = molecular target: Fuc(a1-3)[Gal(b1-4)]GlcNAc
Outline: as §1

[38] = molecular target: Fuc(a1-3)[Gal(b1-4)]GlcNAc(b1-2)Man
Outline: as §1

[39] = molecular target: Fuc(a1-3)[Gal(b1-4)]GlcNAc(b1-2)Man(a1-3)[Fuc(a1-3)[Gal(b1-4)]GlcNAc(b1-2)Man(a1-6)]Man(b1-4)GlcNAc(b1-4)GlcNAc
Outline: as §1

[40] = molecular target: Fuc(a1-3)[Gal(b1-4)]GlcNAc(b1-2)Man(a1-3)[Fuc(a1-3)[Gal(b1-4)]GlcNAc(b1-2)Man(a1-6)]Man(b1-4)GlcNAc(b1-4)[Fuc(a1-6)]GlcNAc
Outline: as §1

[41] = molecular target: Fuc(a1-3)[Gal(b1-4)]GlcNAc(b1-3)Gal(b1-3)[Fuc(a1-4)]GlcNAc
Outline: as §1

[42] = molecular target: Fuc(a1-3)[Gal(b1-4)]GlcNAc(b1-3)GalNAc
Outline: as §1

[43] = molecular target: Fuc(a1-3)[Gal(b1-4)]GlcNAc(b1-4)Gal(b1-4)[Fuc(a1-3)]GlcNAc
Outline: as §1

[44] = molecular target: Fuc(a1-3)[Gal(b1-4)]GlcNAc(b1-4)Gal(b1-4)[Fuc(a1-3)]GlcNAc(b1-4)Gal(b1-4)[Fuc(a1-3)]GlcNAc
Outline: as §1

[45] = molecular target: Fuc(a1-3)[Gal(b1-4)]GlcNAc(b1-6)GalNAc
Outline: as §1

[46] = molecular target: Fuc(a1-3)[Gal(b1-4)]GlcNAc(b1-6)[Gal(b1-3)GlcNAc(b1-3)]Gal(b1-4)Glc
Outline: as §1

[47] = molecular target: Fuc(a1-3)[Gal(b1-4)]GlcNAc(b1-6)[Neu5Ac(a2-3)Gal(b1-3)]GalNAc
Outline: as §1

[48] = molecular target: Fuc(a1-3)[Gal(b1-4)]GlcNAc6S
Outline: as §1

[49] = molecular target: Fuc(a1-3)[Gal3S(b1-4)]Glc
Outline: as §1

[50] = molecular target: Fuc(a1-3)[Gal3S(b1-4)]GlcNAc
Outline: as §1

[51] = molecular target: Fuc(a1-3)[Gal3S(b1-4)]GlcNAc6S
Outline: as §1

[52] = molecular target: Fuc(a1-3)[GalNAc(b1-4)]GlcNAc
Outline: as §1

[53] = molecular target: Fuc(a1-3)[GalNAc(b1-4)]GlcNAc6S
Outline: as §1

[54] = molecular target: Fuc(a1-4)GlcNAc
Outline: as §1

[55] = molecular target: Fuc(b1-3)GlcNAc
Outline: as §1

[56] = molecular target: Gal(a1-2)Gal
Outline: as §1

[57] = molecular target: Gal(a1-3)Gal
Outline: as §1

[58] = molecular target: Gal(a1-3)Gal(b1-3)GlcNAc
Outline: as §1

[59] = molecular target: Gal(a1-3)Gal(b1-3)GlcNAc(b1-2)Man
Outline: as §1

[60] = molecular target: Gal(a1-3)Gal(b1-3)GlcNAc(b1-2)Man(a1-3)[Gal(a1-3)Gal(b1-3)GlcNAc(b1-2)Man(a1-6)]Man(b1-4)GlcNAc(b1-4)GlcNAc
Outline: as §1

B1: Gal 12 (Homo sapiens), Q96DT0 (protein)
chain: MSQPSGGRAPGTRIYSWSCPTVMSPGEKLDPIPDSFILQPPVFHPVVPYVTTIFGGLHAGKMVMLQGVVPLDAHRFQVDFQCGCSLCPRPDIAFHFNPRFHTTKPHVICNTLHGGRWQREARWPHLALRRGSSFLILFLFGNEEVKVSVNGQHFLHFRYRLPLSHVDTLGIFGDILVEAVGFLNINPFVEGSREYPAGHPFLLMSPRLEVPCSHALPQGLSPGQVIIVRGLVLQEPKHFTVSLRDQAAHAPVTLRASFADRTLAWISRWGQKKLISAPFLFYPQRFFEVLLLFQEGGLKLALNGQGLGATSMNQQALEQLRELRISGSVQLYCVHS
[1]
  glycan array binding signal (z-score): -0.491
[2]
  glycan array binding signal (z-score): 0.096
[3]
  glycan array binding signal (z-score): 0.053
[4]
  glycan array binding signal (z-score): -0.727
[5]
  glycan array binding signal (z-score): 1.02
[6]
  glycan array binding signal (z-score): -1.02
[7]
  glycan array binding signal (z-score): -0.63
[8]
  glycan array binding signal (z-score): -0.845
[9]
  glycan array binding signal (z-score): -0.558
[10]
  glycan array binding signal (z-score): 0.385
[11]
  glycan array binding signal (z-score): 4.56
[12]
  glycan array binding signal (z-score): 0.342
[13]
  glycan array binding signal (z-score): -0.432
[14]
  glycan array binding signal (z-score): -0.304
[15]
  glycan array binding signal (z-score): -1.09
[16]
  glycan array binding signal (z-score): -0.257
[17]
  glycan array binding signal (z-score): -0.312
[18]
  glycan array binding signal (z-score): 0.723
[19]
  glycan array binding signal (z-score): 1.71
[20]
  glycan array binding signal (z-score): -1.31
[21]
  glycan array binding signal (z-score): -0.1
[22]
  glycan array binding signal (z-score): 0.03
[23]
  glycan array binding signal (z-score): -0.683
[24]
  glycan array binding signal (z-score): -0.022
[25]
  glycan array binding signal (z-score): -0.558
[26]
  glycan array binding signal (z-score): -0.705
[27]
  glycan array binding signal (z-score): -0.39
[28]
  glycan array binding signal (z-score): 0.193
[29]
  glycan array binding signal (z-score): -0.877
[30]
  glycan array binding signal (z-score): -0.011
[31]
  glycan array binding signal (z-score): 1.3
[32]
  glycan array binding signal (z-score): 2.65
[33]
  glycan array binding signal (z-score): -0.686
[34]
  glycan array binding signal (z-score): 0.304
[35]
  glycan array binding signal (z-score): -0.538
[36]
  glycan array binding signal (z-score): -0.505
[37]
  glycan array binding signal (z-score): -0.385
[38]
  glycan array binding signal (z-score): 1.12
[39]
  glycan array binding signal (z-score): -0.687
[40]
  glycan array binding signal (z-score): 1.62
[41]
  glycan array binding signal (z-score): -0.129
[42]
  glycan array binding signal (z-score): 2.44
[43]
  glycan array binding signal (z-score): -0.147
[44]
  glycan array binding signal (z-score): -0.462
[45]
  glycan array binding signal (z-score): 1
[46]
  glycan array binding signal (z-score): -0.581
[47]
  glycan array binding signal (z-score): 0.106
[48]
  glycan array binding signal (z-score): -0.492
[49]
  glycan array binding signal (z-score): -0.65
[50]
  glycan array binding signal (z-score): 0.346
[51]
  glycan array binding signal (z-score): 1.35
[52]
  glycan array binding signal (z-score): -0.125
[53]
  glycan array binding signal (z-score): -0.584
[54]
  glycan array binding signal (z-score): 0.116
[55]
  glycan array binding signal (z-score): -0.119
[56]
  glycan array binding signal (z-score): -0.863
[57]
  glycan array binding signal (z-score): -0.212
[58]
  glycan array binding signal (z-score): 0.367
[59]
  glycan array binding signal (z-score): 0.199
[60]
  glycan array binding signal (z-score): 0.642
